Results on three substances are retold here after publication PMC11446459.

No constants are given. Whether binding was seen depends on the method and setting. Binding seen in cells or lysates may run through a third protein. A result given as binding can be weak or reduced; the word gives no strength. Where a sequence is shown, tags or fusion partners need not be part of it.

For test [1], the target named is T1, δ subunit of F1, cLUC fusion (Arabidopsis) (UniProt Q96252).
T1 sequence: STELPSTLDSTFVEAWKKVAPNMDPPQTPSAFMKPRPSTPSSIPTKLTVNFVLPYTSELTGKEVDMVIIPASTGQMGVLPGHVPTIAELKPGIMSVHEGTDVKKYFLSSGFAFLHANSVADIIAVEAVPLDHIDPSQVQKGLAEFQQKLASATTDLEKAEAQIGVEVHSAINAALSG
Kind of test: split reporter; luciferase complementation imaging (LCI), nLUC and cLUC fusions in co-infiltrated tobacco leaves, 48 h, 1 mM D-luciferin.

The target in test [2] is T2, B9, GFP-tagged (Arabidopsis) (UniProt Q945M1).
T2 sequence: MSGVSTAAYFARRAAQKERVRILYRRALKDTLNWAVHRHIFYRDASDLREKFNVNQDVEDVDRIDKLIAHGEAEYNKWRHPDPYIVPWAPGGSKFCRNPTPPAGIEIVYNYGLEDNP
Kind of test: co-IP; Flag- and GFP-tagged proteins co-expressed in tobacco leaves; lysate incubated with GFP-Nanoab-Magnetic Beads 2 h at 4°C, six washes; blots with anti-GFP and anti-Flag.

The target of test [3] is T3, γ subunit of F1, GFP-tagged (Arabidopsis) (UniProt Q96250).
T3 sequence: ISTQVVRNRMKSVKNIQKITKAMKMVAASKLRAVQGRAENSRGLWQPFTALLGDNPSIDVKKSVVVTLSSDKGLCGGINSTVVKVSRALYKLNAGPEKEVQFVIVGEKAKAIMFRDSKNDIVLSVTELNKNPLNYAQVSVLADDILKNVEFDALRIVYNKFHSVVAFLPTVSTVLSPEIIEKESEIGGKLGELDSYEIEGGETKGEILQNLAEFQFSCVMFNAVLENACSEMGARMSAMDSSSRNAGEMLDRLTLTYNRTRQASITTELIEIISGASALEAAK
The description is as above.

Test [4] addresses T4, ε subunit of F1, GFP-tagged (Arabidopsis) (UniProt Q96253).
T4 sequence: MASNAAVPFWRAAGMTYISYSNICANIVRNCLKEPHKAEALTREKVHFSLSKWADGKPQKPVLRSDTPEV
The test is described as above.

Test [5] concerns the target T5, γ subunit of F1, split-YFP fusion (Arabidopsis) (UniProt Q96250).
T5 sequence: T3 sequence
In words: split reporter; BiFC with split YFP in co-infiltrated tobacco leaves, YFP fluorescence observed 48 h after infiltration.

Test [6] deals with T6, δ subunit of F1, split-YFP fusion (Arabidopsis) (UniProt Q96252).
T6 sequence: T1 sequence
Described as above.

The target of test [7] is T7, ε subunit of F1, split-YFP fusion (Arabidopsis) (UniProt Q96253).
T7 sequence: T4 sequence
The test is described as above.

The target of test [8] is T8, B9, split-YFP fusion (Arabidopsis) (UniProt Q945M1).
T8 sequence: T2 sequence
The description is as above.

As to C1-FDX, nLUC fusion (Arabidopsis), the binding entry in test [1] was “binds”.

For the substance C1-FDX, Flag-tagged (Arabidopsis), the binding result in test [2], in test [3] and in test [4] was “binds” in each case.

C1-FDX-cYFP (Arabidopsis): the binding result in test [5], in test [6], in test [7] and in test [8] was “binds” each time.
